# Reference: PMC9483116, “Deubiquitination of BES1 by UBP12/UBP13 promotes brassinosteroid signaling and plant growth” (Plant Communications, 2022)
# Protein sequences, listed by entry. Tags and fused reporters are not part of them.
# UniProt Q9LN63: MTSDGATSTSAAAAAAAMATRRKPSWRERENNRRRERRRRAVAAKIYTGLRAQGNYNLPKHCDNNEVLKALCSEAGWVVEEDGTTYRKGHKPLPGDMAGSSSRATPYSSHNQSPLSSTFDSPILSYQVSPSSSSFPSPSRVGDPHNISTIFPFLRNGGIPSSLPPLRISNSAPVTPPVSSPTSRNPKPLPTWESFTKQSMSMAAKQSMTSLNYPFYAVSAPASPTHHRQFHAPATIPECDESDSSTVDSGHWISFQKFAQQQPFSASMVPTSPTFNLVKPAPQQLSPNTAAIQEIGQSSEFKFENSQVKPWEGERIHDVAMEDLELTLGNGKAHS
# UniProt Q8S307: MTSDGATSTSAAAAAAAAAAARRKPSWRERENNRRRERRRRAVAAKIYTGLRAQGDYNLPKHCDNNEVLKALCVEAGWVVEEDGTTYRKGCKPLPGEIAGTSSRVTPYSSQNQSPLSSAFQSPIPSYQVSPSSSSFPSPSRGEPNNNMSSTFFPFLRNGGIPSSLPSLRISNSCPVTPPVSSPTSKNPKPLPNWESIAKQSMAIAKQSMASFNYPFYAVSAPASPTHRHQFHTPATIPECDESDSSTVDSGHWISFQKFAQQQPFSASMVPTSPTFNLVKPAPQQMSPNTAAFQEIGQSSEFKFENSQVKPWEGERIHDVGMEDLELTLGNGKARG
# These are yes or no findings as the source states them, for the method shown. Binding seen in cells or lysates may run through a third protein. Some entries that bind do so weakly or less than the wild type. Tags and fused reporters may be left off the sequences shown.
# Experiments:
# [1] = target: T1, UBP12-HA (Arabidopsis thaliana) (UniProt Q9FPT1); assay: co-IP; extracts of 7-day-old 35S:BES1-myc/UBQ10:UBP12-HA seedlings treated with 50 uM MG132 with or without 1 uM eBL for 6 h; 50 mM Tris-HCl pH 7.4, 100 mM NaCl, 0.2% Triton X-100, 1 mM DTT; IP with anti-HA or anti-myc and protein A-agarose, blot with anti-myc or anti-HA
# T1 sequence: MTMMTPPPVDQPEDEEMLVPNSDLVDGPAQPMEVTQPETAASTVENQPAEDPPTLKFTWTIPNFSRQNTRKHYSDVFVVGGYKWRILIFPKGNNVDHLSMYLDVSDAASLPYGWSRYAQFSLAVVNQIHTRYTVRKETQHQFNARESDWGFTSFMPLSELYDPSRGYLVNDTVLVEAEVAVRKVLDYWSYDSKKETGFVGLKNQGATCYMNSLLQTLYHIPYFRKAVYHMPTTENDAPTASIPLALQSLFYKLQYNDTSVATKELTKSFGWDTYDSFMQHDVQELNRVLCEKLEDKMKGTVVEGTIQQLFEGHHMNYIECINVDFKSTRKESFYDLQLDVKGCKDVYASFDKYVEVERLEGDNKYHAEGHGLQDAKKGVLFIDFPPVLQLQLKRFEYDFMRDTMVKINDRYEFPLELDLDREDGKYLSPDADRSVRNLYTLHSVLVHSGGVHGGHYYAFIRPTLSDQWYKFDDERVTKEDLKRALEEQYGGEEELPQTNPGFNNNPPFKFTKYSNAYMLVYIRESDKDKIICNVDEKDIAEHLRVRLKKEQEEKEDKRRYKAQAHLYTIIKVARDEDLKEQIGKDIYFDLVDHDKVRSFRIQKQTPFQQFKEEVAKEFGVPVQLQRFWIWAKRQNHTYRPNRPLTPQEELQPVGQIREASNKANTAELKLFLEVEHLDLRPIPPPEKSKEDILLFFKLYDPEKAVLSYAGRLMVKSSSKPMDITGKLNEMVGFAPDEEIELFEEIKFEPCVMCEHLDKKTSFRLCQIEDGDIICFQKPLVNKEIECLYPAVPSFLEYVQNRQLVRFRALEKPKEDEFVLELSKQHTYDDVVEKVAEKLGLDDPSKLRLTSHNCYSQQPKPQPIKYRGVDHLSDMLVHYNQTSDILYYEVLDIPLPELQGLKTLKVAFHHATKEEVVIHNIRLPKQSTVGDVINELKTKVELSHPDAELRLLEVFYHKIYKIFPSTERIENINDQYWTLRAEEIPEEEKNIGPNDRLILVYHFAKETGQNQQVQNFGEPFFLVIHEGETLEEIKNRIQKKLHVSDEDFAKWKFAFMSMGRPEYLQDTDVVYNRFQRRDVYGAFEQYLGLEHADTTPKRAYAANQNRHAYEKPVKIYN
# [2] = target: T2, GST-UBP12 (full-length) (Arabidopsis thaliana, UniProt Q9FPT1 1-1116); assay: pull-down; semi-in vivo; resin-bound GST or GST-UBP12 incubated at 4°C for 2 h with total protein extracts of 7-day-old 35S:BES1-myc seedlings treated with or without 1 uM eBL for 6 h; 100 mM Tris-HCl pH 7.5, 300 mM NaCl, 2 mM EDTA, 1% Triton X-100, 10% glycerol; anti-myc blot; only the target purified
# T2 construct: UBP12 (ubiquitin-specific protease 12), Arabidopsis thaliana, At5g06600; full length (1-1116 by the limits printed for its N and C derivatives); not shown: GST, N-terminal, kept
# T2 sequence (looked up): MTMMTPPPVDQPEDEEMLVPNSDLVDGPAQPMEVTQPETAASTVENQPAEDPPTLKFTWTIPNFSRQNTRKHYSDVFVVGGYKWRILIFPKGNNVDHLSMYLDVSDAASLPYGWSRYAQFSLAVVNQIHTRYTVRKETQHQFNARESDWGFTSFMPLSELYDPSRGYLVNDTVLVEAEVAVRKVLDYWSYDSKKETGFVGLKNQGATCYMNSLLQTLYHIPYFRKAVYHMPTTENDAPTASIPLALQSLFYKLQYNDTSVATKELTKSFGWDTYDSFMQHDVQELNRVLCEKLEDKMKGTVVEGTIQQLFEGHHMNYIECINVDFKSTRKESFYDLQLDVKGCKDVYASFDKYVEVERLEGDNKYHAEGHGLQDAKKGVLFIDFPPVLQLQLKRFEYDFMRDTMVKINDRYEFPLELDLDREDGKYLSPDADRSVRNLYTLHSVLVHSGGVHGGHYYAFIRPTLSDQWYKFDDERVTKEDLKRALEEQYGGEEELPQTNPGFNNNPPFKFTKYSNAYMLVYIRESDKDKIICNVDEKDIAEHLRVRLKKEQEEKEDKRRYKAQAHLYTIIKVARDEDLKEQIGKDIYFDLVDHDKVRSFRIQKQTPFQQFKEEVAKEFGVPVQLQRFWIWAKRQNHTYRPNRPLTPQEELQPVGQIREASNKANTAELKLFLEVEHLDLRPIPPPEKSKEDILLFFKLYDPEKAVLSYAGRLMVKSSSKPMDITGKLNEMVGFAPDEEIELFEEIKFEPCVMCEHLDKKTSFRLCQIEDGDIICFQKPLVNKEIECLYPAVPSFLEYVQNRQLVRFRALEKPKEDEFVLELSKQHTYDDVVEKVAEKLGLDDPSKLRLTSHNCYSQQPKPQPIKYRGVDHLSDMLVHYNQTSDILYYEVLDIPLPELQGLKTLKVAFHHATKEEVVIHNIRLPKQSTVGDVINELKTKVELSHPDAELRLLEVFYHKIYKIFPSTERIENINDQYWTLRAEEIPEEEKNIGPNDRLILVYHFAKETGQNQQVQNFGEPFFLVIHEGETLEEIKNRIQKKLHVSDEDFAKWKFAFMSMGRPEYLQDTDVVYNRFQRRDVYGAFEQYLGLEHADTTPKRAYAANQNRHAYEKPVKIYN
# [3] = target: T3, UBP12-cYFP (Arabidopsis thaliana) (UniProt Q9FPT1); assay: split reporter; BiFC (split YFP) in N. benthamiana leaves infiltrated with Agrobacterium; confocal images 3 days after infiltration; with mCherry-NLS
# T3 sequence: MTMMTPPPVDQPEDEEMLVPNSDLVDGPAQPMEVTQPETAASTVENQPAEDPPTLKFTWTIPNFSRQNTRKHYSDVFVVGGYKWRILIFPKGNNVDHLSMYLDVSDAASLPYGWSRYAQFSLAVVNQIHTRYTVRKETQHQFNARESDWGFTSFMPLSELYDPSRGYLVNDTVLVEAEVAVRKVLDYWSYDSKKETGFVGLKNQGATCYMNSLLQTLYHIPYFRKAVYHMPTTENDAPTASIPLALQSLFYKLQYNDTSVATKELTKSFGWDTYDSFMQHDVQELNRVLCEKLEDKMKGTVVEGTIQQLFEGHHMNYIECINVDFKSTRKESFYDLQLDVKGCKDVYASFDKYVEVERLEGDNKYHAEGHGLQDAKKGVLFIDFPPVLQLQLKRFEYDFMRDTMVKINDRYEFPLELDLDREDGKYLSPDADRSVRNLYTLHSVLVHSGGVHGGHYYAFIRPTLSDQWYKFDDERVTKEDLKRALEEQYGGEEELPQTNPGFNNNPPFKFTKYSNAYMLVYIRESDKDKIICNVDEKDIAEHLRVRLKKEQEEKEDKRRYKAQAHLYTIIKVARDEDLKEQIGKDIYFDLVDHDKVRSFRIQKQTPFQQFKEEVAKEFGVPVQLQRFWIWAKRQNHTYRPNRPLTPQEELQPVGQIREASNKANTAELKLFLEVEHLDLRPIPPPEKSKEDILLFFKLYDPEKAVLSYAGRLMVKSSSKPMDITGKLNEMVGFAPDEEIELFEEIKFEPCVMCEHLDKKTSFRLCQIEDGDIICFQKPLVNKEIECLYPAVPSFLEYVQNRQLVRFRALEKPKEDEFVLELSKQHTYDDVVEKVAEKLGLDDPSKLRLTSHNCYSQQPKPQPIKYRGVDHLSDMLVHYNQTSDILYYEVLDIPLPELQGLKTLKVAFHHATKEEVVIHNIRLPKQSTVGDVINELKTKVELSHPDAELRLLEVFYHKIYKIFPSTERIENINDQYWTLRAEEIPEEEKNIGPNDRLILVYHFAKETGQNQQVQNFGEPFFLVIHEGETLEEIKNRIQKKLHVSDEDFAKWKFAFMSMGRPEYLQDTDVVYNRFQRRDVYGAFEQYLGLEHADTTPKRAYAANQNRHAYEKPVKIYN
# [4] = target: T4, UBP13-cYFP (Arabidopsis thaliana) (UniProt Q84WU2); assay: as above
# T4 sequence: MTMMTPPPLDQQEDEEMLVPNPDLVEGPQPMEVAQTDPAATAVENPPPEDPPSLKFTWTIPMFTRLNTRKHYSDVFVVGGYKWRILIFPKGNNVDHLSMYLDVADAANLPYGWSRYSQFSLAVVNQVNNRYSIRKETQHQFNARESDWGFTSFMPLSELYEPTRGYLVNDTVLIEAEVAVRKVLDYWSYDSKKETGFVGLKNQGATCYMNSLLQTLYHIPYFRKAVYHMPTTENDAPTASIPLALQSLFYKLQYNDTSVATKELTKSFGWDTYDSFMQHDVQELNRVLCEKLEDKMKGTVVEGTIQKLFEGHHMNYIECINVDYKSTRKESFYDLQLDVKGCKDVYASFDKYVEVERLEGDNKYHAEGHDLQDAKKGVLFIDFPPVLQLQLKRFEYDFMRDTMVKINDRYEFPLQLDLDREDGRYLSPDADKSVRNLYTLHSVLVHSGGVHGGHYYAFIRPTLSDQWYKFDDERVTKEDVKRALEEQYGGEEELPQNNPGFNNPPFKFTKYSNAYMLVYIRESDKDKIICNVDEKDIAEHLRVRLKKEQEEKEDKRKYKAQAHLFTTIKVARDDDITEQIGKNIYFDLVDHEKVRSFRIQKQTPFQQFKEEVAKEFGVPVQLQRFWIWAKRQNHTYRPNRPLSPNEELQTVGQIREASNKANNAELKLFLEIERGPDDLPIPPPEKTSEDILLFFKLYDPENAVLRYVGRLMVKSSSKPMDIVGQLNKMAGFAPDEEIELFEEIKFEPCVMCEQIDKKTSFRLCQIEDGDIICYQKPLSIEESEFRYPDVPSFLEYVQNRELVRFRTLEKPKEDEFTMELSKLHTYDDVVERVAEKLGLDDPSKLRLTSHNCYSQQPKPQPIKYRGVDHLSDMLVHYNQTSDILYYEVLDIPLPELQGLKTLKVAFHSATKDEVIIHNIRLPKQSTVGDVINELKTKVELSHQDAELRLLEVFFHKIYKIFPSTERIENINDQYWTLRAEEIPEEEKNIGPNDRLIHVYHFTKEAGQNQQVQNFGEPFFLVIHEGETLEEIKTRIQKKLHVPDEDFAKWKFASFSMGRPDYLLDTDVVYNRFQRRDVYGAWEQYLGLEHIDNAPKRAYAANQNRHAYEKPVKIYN
Substance,binding [1],binding [2],binding [3],binding [4]
BES1-myc (dephosphorylated BES1-myc) (from UniProt Q9LN63 1-335),binds,binds,–,–
BZR1 (BiFC construct) (from UniProt Q8S307 1-336),–,–,binds,binds
nYFP-BES1 (from UniProt Q9LN63 1-335),–,–,binds,binds
